The results in this text go back to PMC12137620, “Targeting the MDK/c‐Myc complex to overcome temozolomide resistance in glioma” (Clinical and Translational Medicine, 2025).

The chains behind the UniProt entries cited, without tags or fusion partners.
UniProt P01106: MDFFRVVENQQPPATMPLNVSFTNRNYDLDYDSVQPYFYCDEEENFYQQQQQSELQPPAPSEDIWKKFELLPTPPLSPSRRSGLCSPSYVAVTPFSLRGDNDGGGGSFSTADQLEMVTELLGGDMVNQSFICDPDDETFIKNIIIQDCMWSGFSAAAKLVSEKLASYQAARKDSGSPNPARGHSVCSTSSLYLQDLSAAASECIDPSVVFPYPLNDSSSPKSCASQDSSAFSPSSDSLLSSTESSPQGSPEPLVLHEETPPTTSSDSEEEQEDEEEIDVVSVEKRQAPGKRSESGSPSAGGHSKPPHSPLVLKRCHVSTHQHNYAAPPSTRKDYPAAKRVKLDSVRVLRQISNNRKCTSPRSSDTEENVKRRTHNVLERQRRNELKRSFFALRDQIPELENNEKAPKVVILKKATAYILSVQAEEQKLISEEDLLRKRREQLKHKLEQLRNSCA

The assay deals with T1, FLAG-MDK (midkine) (human) (UniProt P21741).
T1 sequence: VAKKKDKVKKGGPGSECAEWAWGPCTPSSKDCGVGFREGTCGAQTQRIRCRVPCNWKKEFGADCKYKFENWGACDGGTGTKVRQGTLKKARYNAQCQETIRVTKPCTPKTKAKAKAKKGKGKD
The assay can be described thus: affinity purification with mass spectrometry; FLAG-MDK stably expressed in SF126 and U118MG cells; RIPA lysates; anti-FLAG magnetic beads; SDS-PAGE, silver stain, differential band (50-70 kDa) cut and identified by Orbitrap mass spectrometry.

These are yes or no findings as the source states them, for the method shown. Binding seen in cells or lysates may run through a third protein. These calls come from enrichment with a bait or labelling near it, and not all partners need be listed. Tags and fused reporters may be left off the sequences shown.

For the molecule “c-Myc, endogenous in glioma cells (from UniProt P01106 1-454)”, the binding entry was “binds”.

B1: USP22, endogenous in glioma cells (enzyme, UniProt Q9UPT9 1-525)
chain: MVSRPEPEGEAMDAELAVAPPGCSHLGSFKVDNWKQNLRAIYQCFVWSGTAEARKRKAKSCICHVCGVHLNRLHSCLYCVFFGCFTKKHIHEHAKAKRHNLAIDLMYGGIYCFLCQDYIYDKDMEIIAKEEQRKAWKMQGVGEKFSTWEPTKRELELLKHNPKRRKITSNCTIGLRGLINLGNTCFMNCIVQALTHTPLLRDFFLSDRHRCEMQSPSSCLVCEMSSLFQEFYSGHRSPHIPYKLLHLVWTHARHLAGYEQQDAHEFLIAALDVLHRHCKGDDNGKKANNPNHCNCIIDQIFTGGLQSDVTCQVCHGVSTTIDPFWDISLDLPGSSTPFWPLSPGSEGNVVNGESHVSGTTTLTDCLRRFTRPEHLGSSAKIKCSGCHSYQESTKQLTMKKLPIVACFHLKRFEHSAKLRRKITTYVSFPLELDMTPFMASSKESRMNGQYQQPTDSLNNDNKYSLFAVVNHQGTLESGHYTSFIRQHKDQWFKCDDAIITKASIKDVLDSEGYLLFYHKQFLEYE
On to B1, for which the binding result is given as “binds”.
